Measured values published in PubChem BioAssay AID1487 (National Center for Advancing Translational Sciences (NCATS), 2009).
The list shows a part of the results. Further columns of the screen follow, without active or inactive calls. Compounds called inactive in the main read-out are mostly missing here. Potencies come from curve fits of mixed quality, noted in brackets.

Test: qHTS Assay for Modulators of Lamin A Splicing
Conditions: HeLa LMNA splicing GFP/RFP minigene ratio, 48 h
How it was run: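 S3 HeLa cells stably expressing lamin A-EGFP splicing minigene plus DsRed2, 600 cells/well, 48 h compound exposure at 37C. Laser-scanning cytometry; analysed as GFP (500-530 nm)/RFP (575-640 nm) total intensity ratio; 0.5% DMSO vehicle.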

[1] = measured here: RFP viability control channel
[2] = measured here: GFP splicing reporter channel

Structure (SMILES)	AC50 [1]	AC50 [2]
Cc1nn(-c2ccccc2)c(C)c1/C=N/NC(=O)c1cc(-c2ccccc2)n[nH]1	0.794 µM [rising, full curve, poor fit]	–
CCOC(=O)c1c(S(=O)(=O)N2CCCC(C(=O)Nc3cccc(C)n3)C2)c(C)n(C)c1C (stereo unspecified)	3.55 µM [falling, partial curve]	–
COc1ccc(CNC(=O)CSc2nnc(-c3cccnc3)n2N)cc1	–	0.158 µM [falling, full curve, poor fit]
CN(C)c1nc(N(C)C)n(C(=O)c2cccs2)n1	0.00708 µM [falling, full curve, poor fit]	0.0501 µM [falling, full curve, poor fit]
COc1ccc(Cn2ccc3nc(C)c(C(=O)NCc4ccc(F)cc4)cc3c2=O)cc1	0.708 µM [rising, full curve, poor fit]	0.0398 µM [rising, full curve, poor fit]
Cn1cc(C2N3CC4(C)CN2CC(C)(C3)C4=O)c2ccccc21 (stereo unspecified)	35.5 µM [falling, partial curve]	35.5 µM [falling, single point]
O=c1oc2c(CN3CCN(CCO)CC3)c(O)ccc2cc1-c1ccccc1	0.316 µM [rising, partial curve, poor fit]	0.126 µM [rising, full curve, poor fit]
COCCn1c(SCC(=O)Nc2ccc3c(c2)OCCO3)nc2c(c1=O)SC(C)C2 (stereo unspecified)	7.94 µM [rising, partial curve, poor fit]	–
N#CC1=C2C=Cc3ccccc3N2CCCC1=O	0.708 µM [rising, partial curve]	–
CCOC(=O)c1ccc(NC(=O)CCc2nc(-c3ccc(C)cc3)no2)cc1	17.8 µM [rising, single point]	–
Nc1c(-c2ccccc2)nc(Cl)nc1-c1ccccc1	35.5 µM [rising, single point]	35.5 µM [rising, single point]
C=CCn1c(CCCOc2ccc(Cl)cc2Cl)n[nH]c1=S	17.8 µM [rising, single point]	–
Cc1nn(-c2ccccc2)c(Cl)c1/C=C/C(=O)c1ccccc1	25.1 µM [falling, single point]	20 µM [falling, single point]
Cc1ccc(CNC(=O)C23CN(Cc4ccccc4)CC2C(c2ccc([N+](=O)[O-])cc2)=NO3)cc1 (stereo unspecified)	8.91 µM [rising, partial curve, poor fit]	–
CSc1nc(-c2ccccc2)c(C#N)c(=O)n1C	0.00794 µM [falling, full curve, poor fit]	–
O=[N+]([O-])c1cccc(-c2nc(Oc3ccc(Cl)cc3)c3ccccc3n2)c1	2.24 µM [rising, partial curve, poor fit]	2.51 µM [rising, partial curve, poor fit]
CCc1c(C)nc2ncnn2c1N1CCC(C(=O)N2CCN(c3ccc(F)cc3)CC2)CC1	35.5 µM [rising, single point]	11.2 µM [rising, partial curve, poor fit]
Cc1nc2ccn(Cc3cccs3)c(=O)c2cc1C(=O)Nc1ccccc1	–	0.0355 µM [falling, full curve, poor fit]
COc1ccc(-n2c(O)c(/C=N/NS(=O)(=O)c3cc(C)ccc3C)c3ccccc3c2=O)cc1OC	–	11.2 µM [falling, partial curve, poor fit]
CC1=C(C(=O)NCc2ccc(Cl)cc2)C2(CCCCC2)OC1=O	4.47 µM [falling, full curve, poor fit]	–
Cc1nn(CC(=O)Nc2ccc3c(c2)oc2ccccc23)c(=O)c2ccccc12	1.58 µM [rising, partial curve, poor fit]	–
Cn1ccsc1=NC(=O)c1ccc(Cl)cc1	8.91 µM [falling, partial curve, poor fit]	2.82 µM [falling, partial curve, poor fit]
COc1ccc(NS(=O)(=O)c2ccc3[nH]c4c(c3c2)CCCC4)cc1Cl	35.5 µM [falling, single point]	20 µM [falling, single point]
COc1ccc(CCN2C(=O)CS/C2=N/NC(=O)c2ccccc2F)cc1OC	35.5 µM [rising, single point]	–
C(=C\c1ccco1)/C1=NN(c2ccccc2)C(c2ccco2)C1 (stereo unspecified)	31.6 µM [rising, single point]	–
CSc1cccc(CN2CCCC(CNC(=O)c3ccc(F)cc3)C2)c1 (stereo unspecified)	0.1 µM [falling, full curve, poor fit]	0.0891 µM [falling, full curve, poor fit]
CS(=O)(=O)N1CCN(c2ccccc2NC(=S)NC(=O)c2cccs2)CC1	–	3.16 µM [rising, partial curve]

Structure (SMILES)	AC50 [1]	AC50 [2]
COc1ccccc1-c1nc(N(C)C)c2ccccc2n1	12.6 µM [falling, single point]	12.6 µM [falling, partial curve]
COc1cc(Cl)c(C)cc1NC(=O)CNC(C)c1ccccc1OC (stereo unspecified)	–	11.2 µM [falling, partial curve]
COc1ccc(Cc2c(O)nc(SCC(=O)c3ccc(OC)cc3)[nH]c2=O)cc1	28.2 µM [rising, partial curve, poor fit]	–
COc1ccc(OC)c(S(=O)(=O)N2c3cc(F)ccc3CCC2C)c1 (stereo unspecified)	35.5 µM [rising, single point]	10 µM [rising, partial curve]
COc1cc2c(cc1OC)-c1c(OC)c(OC)cc3ccnc(c13)C2=O	3.55 µM [rising, single point]	–
CN(C)c1ccc(-c2nc3ccccn3c2/N=C/c2ccc(Br)cc2)cc1	–	31.6 µM [rising, single point]
Cc1cc(C)n(-c2ccc(C(=O)Nc3ccc(C)c(S(=O)(=O)N(C)C)c3)cc2)n1	11.2 µM [rising, partial curve]	–
COc1c2c(nc3ccccc13)OC(C(C)(O)CO)C2 (stereo unspecified)	5.62 µM [falling, single point]	–
COc1cccc(C(=O)Nc2ccc(Cl)c(C(F)(F)F)c2)c1	12.6 µM [rising, partial curve, poor fit]	14.1 µM [rising, single point]
Cc1ccc(S(=O)(=O)CCC(=O)Nc2ccc3nc(C)sc3c2)cc1	11.2 µM [rising, partial curve]	–
O=c1[nH]cnc2sc(-c3ccccc3)cc12	12.6 µM [rising, single point]	–
COc1ccc(C2SCCN2S(=O)(=O)c2ccccc2)cc1 (stereo unspecified)	0.00447 µM [falling, full curve, poor fit]	0.00447 µM [falling, full curve, poor fit]
CCOC(=O)c1cn(CC)c2ccc(Br)cc2c1=O	0.0112 µM [falling, full curve, poor fit]	–
CCc1nn2c(=O)cc(COC(=O)c3ccco3)nc2s1	0.00316 µM [falling, full curve, poor fit]	0.00282 µM [falling, full curve]
Cc1cc(=O)oc2cc(OCCSCCN3CCCCC3)ccc12	0.00447 µM [falling, full curve, poor fit]	–
CC1CCC(NC(=O)COc2ccc(C(=O)c3ccccc3)cc2)CC1 (stereo unspecified)	11.2 µM [rising, partial curve]	0.708 µM [rising, full curve]
COc1ccc(CNS(=O)(=O)NCc2ccccc2)cc1	–	5.62 µM [falling, full curve, poor fit]
Cc1cc(=O)[nH]c(-n2[nH]c3c(c2=O)CCCC3)n1	17.8 µM [falling, partial curve]	35.5 µM [falling, single point]
Cc1ccc(-c2cn3c(n2)sc2cc(C(=O)NC(C)C45CC6CC(CC(C6)C4)C5)ccc23)cc1 (stereo unspecified)	–	7.08 µM [rising, partial curve, poor fit]
O=C(Cn1cnc2ccccc21)N/N=C/C(Br)=C/c1ccccc1	10 µM [rising, partial curve]	10 µM [rising, partial curve]
Cc1nc2ccccc2c(-c2ccccc2)c1C(=O)c1ccccc1	–	31.6 µM [rising, single point]
CC(C)CC(=O)N1CCN(c2ccc([N+](=O)[O-])cc2Cl)CC1	15.8 µM [rising, partial curve, poor fit]	12.6 µM [rising, partial curve, poor fit]
Clc1ccc(C2C3=C(Nc4ncnn42)c2ccccc2CC3)cc1 (stereo unspecified)	35.5 µM [rising, single point]	25.1 µM [rising, single point]
Cc1c(O)c2c(=O)n(-c3ccccc3)c(-c3ccccc3)cc2oc1=O	12.6 µM [rising, single point]	–
NS(=O)(=O)c1ccc(NC(=S)N2CCN(c3ccc(Cl)c(Cl)c3)CC2)cc1	20 µM [rising, partial curve]	5.01 µM [rising, partial curve]
COc1cccc(OCc2nnc(SCC(=O)N3c4ccccc4Sc4ccc(Cl)cc43)o2)c1	28.2 µM [rising, partial curve, poor fit]	–
CC(C)[C@H](NC(=O)c1ccccc1F)C(=O)Nc1nc2c(s1)CCCC2	12.6 µM [rising, partial curve]	–

Exported with bars between the fields: entries from further up
Structure (SMILES) | AC50 [1] | AC50 [2]
O=c1[nH]cnc2sc(-c3ccccc3)cc12 | 12.6 µM [rising, single point] | –
COc1ccc(C2SCCN2S(=O)(=O)c2ccccc2)cc1 (stereo unspecified) | 0.00447 µM [falling, full curve, poor fit] | 0.00447 µM [falling, full curve, poor fit]
CCOC(=O)c1cn(CC)c2ccc(Br)cc2c1=O | 0.0112 µM [falling, full curve, poor fit] | –
